Reference: patent US20190241666A1
Results are given in words; binding and its absence hold for the method and conditions named. Some binding calls cover weakened binding; strength is not graded here.

By UniProt entry, the sequences of proteins in these tests, tags left out. Residues count along the entry.
UniProt P35968, residues 20-764: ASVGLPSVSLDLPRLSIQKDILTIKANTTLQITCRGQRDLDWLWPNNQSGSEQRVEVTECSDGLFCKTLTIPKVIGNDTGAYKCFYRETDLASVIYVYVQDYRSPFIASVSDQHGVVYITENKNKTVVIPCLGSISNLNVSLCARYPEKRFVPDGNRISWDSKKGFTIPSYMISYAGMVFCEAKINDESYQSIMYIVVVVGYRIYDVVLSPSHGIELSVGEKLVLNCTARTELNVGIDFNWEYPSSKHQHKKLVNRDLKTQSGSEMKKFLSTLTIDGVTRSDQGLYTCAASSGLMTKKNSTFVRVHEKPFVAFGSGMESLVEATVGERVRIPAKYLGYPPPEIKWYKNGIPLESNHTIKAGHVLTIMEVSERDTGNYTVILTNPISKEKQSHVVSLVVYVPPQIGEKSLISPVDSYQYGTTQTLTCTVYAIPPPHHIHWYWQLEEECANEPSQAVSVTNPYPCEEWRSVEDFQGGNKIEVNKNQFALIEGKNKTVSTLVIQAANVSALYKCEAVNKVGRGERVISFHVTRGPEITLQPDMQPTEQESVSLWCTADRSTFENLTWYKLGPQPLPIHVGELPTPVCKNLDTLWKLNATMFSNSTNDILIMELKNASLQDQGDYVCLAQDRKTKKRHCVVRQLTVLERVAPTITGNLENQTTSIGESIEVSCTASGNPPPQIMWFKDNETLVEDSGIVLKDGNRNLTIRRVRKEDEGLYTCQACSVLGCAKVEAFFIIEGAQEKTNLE

Tests used:
[1] = molecular target: VEGFR2-ECD Fc fusion protein (human) (UniProt P35968); assay: ELISA, purified Fab on plates coated with VEGFR2-ECD Fc protein
[2] = molecular target: human VEGFR2 (as used in the ELISAs of Example 2) (human) (UniProt P35968); assay: ELISA
[3] = molecular target: human VEGFR2 (as used in the ELISAs of Example 2) (human) (UniProt P35968); assay: ELISA, eight 1:4 dilutions from 800 ng/well

| Binder | binding [1] | binding [2] | binding [3] |
| --- | --- | --- | --- |
| 1A10 Fab protein (clone from the OPAL phage library, expressed in E. coli ER2537) (Fab, V domains shown) VH: EVQLLESGGGLVQPGGSLRLSCAASGFTFSDYDMSWVRQAPGKGLEWVSSIYPGDSSTYYADSVKGRFTISRDNSKNTLYLQMNSLRAEDTAVYYCAKEEVAFDYWGQGTLVTVSS VL: QSVLTQPPSASGTPGQRVTISCTGSSSNIGNYYVYWYQQLPGTAPKLLIYANSHRPSGVPDRFSGSKSGTSASLAISGLRSEDEADYYCATWDASLSGYVFGGGTKLTVL | binds | – | – |
| 1A10 antibody (IgG-converted) (antibody, V domains shown) VH: EVQLLESGGGLVQPGGSLRLSCAASGFTFSDYDMSWVRQAPGKGLEWVSSIYPGDSSTYYADSVKGRFTISRDNSKNTLYLQMNSLRAEDTAVYYCAKEEVAFDYWGQGTLVTVSS VL: QSVLTQPPSASGTPGQRVTISCTGSSSNIGNYYVYWYQQLPGTAPKLLIYANSHRPSGVPDRFSGSKSGTSASLAISGLRSEDEADYYCATWDASLSGYVFGGGTKLTVL | – | binds | binds |
